Experimental data as given in patent publication US20240000786A1, “COMPOSITION FOR ENHANCING INTRA-CELLULAR NITRIC OXIDE GENERATION” (INSTITUTE OF LIFE SCIENCES, priority 2020, published 2024).
For at least one compound, name, drawing or mass did not settle the structure.

Biological target: T1, iNOS-NOSIP protein interaction (Homo sapiens, UniProt Q9Y314)
T1 construct: made in house; host or cells: E. coli BL21 (DE3)
T1 sequence (Q9Y314 with tags, fused parts or gaps): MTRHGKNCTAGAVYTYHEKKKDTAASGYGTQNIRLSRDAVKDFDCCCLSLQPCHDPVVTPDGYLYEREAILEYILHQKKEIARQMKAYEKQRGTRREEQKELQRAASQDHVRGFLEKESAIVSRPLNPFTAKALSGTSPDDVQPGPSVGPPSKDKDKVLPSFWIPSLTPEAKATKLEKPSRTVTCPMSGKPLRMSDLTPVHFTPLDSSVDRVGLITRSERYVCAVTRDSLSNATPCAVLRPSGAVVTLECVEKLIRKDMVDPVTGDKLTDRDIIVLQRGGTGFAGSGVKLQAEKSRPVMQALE
Test: SPR: inhibition of rNOSIP association with immobilized recombinant iNOS by iNOS peptides / small molecules
Type: binding
Description: Four different iNOS peptides were synthesized commercially by China peptides and iNOS peptides were used for molecular interaction studies with immobilized recombinant iNOS purified protein. The iNOS peptides mediated inhibition of rNOSIP and riNOS protein association in Bio-Rad XPR 36 surface plasmon resonance biosensor instrument. […] 250 nM of iNOS peptides was used for inhibition assay with immobilized ligand(recombinant iNOS) in SPR analysis. Similar condition and concentration of small molecules were used for inhibition of recombinant protein association with immobilized ligand. […] The molecular interaction was carried out at 20° C. and kinetic parameters were determined, after fitting the association and dissociation curves to a 1:1 (Langmuir)-binding model. […] The response curves were also recorded on control surfaces. Results were calculated after subtraction of the control values using the ProteOn Manager software. […]
The five small molecules bind with NOSIP and inhibit the association of recombinant NOSIP and recombinant iNOS. […] The molecular interaction was carried out at 20° C. and kinetic parameters were determined, after fitting the association and dissociation curves to a 1:1 (Langmuir)-binding model. […] The response curves were also recorded on control surfaces. Results were calculated after subtraction of the control values using the ProteOn Manager software. […]

## CCN(c1ccccc1)S(=O)(=O)c1ccc(Cl)c(NC(=O)COC(=O)c2ccccc2SCC(=O)Nc2ccc3c(c2)OCO3)c1 [MCULE-8094061955, ({2-chloro-5-[ethyl(phenyl)sulfamoyl]phenyl}carbamoyl)methyl 2-({[(2H-1,3-benzodioxol-5-yl)carbamoyl]methyl}sulfanyl) benzoate]
SPR KD relative to rNOSIP + iNOS peptide2 = 1
  Fold Change (KD): 1.637e^+2
Analyte rNOSIP alone or + peptide/small molecule, ligand r iNOS, 20° C., 1:1 Langmuir
  Kd(1/s): 5.42e^−04 1/s
